Reference: the supplement of paper PMC10849652
The other results are listed elsewhere or left out.

Chains of the proteins cited; added tags and fusions are not shown. Lines headed by an entry give the natural chain unless they say otherwise; changes in a name come on top.
UniProt P17482: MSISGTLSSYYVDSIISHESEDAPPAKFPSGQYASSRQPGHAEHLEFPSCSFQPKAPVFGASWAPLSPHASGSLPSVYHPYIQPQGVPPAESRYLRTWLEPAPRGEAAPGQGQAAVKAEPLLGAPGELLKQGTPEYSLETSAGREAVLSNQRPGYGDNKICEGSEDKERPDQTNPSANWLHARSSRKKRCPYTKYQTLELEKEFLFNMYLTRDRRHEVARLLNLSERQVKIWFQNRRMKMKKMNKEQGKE
UniProt P04792, whole entry, looked up: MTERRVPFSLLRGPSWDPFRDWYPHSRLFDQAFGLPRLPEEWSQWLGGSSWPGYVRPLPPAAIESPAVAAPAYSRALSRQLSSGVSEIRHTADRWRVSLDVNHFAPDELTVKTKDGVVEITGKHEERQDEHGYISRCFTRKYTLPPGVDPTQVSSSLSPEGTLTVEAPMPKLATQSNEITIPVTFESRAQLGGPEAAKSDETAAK
UniProt Q9Y547: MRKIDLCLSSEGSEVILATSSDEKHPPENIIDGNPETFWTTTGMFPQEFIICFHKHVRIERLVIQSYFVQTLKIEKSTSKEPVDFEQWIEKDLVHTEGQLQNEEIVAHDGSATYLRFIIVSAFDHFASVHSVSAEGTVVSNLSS
UniProt Q15651: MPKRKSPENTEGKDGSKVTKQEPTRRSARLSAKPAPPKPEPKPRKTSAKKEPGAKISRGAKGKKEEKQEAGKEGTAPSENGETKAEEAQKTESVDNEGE
UniProt Q92598: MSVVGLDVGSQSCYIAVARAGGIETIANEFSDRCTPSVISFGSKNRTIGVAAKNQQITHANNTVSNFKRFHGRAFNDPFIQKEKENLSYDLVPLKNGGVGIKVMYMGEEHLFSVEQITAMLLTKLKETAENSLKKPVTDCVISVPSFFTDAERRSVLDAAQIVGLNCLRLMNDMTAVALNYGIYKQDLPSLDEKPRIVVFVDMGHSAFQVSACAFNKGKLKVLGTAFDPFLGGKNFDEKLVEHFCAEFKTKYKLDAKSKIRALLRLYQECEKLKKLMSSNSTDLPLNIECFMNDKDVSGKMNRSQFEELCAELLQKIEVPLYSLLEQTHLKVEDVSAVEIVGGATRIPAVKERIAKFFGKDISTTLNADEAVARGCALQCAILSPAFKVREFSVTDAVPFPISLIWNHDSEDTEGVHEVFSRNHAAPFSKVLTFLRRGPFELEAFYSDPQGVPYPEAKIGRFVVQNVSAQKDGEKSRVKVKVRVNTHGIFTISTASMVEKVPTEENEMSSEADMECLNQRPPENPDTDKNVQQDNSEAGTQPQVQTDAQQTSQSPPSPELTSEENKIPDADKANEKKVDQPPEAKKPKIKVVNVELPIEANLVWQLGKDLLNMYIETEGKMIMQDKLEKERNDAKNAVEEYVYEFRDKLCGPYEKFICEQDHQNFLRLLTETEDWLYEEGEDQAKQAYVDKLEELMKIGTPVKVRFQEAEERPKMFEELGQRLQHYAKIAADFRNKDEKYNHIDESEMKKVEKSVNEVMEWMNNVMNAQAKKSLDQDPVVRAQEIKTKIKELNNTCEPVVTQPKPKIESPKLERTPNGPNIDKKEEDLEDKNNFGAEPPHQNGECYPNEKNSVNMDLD
UniProt Q58FG1, whole entry, looked up: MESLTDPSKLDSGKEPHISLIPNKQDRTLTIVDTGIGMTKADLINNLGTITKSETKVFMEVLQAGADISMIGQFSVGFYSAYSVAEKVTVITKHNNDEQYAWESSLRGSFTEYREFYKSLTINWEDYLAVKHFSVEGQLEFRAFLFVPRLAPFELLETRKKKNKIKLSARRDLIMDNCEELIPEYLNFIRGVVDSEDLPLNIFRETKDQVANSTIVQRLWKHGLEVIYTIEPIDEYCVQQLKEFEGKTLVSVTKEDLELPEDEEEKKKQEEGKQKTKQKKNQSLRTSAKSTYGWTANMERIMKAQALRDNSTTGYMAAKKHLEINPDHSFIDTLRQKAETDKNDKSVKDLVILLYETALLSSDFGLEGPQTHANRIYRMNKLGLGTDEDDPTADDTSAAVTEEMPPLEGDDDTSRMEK
UniProt Q9Y4L1: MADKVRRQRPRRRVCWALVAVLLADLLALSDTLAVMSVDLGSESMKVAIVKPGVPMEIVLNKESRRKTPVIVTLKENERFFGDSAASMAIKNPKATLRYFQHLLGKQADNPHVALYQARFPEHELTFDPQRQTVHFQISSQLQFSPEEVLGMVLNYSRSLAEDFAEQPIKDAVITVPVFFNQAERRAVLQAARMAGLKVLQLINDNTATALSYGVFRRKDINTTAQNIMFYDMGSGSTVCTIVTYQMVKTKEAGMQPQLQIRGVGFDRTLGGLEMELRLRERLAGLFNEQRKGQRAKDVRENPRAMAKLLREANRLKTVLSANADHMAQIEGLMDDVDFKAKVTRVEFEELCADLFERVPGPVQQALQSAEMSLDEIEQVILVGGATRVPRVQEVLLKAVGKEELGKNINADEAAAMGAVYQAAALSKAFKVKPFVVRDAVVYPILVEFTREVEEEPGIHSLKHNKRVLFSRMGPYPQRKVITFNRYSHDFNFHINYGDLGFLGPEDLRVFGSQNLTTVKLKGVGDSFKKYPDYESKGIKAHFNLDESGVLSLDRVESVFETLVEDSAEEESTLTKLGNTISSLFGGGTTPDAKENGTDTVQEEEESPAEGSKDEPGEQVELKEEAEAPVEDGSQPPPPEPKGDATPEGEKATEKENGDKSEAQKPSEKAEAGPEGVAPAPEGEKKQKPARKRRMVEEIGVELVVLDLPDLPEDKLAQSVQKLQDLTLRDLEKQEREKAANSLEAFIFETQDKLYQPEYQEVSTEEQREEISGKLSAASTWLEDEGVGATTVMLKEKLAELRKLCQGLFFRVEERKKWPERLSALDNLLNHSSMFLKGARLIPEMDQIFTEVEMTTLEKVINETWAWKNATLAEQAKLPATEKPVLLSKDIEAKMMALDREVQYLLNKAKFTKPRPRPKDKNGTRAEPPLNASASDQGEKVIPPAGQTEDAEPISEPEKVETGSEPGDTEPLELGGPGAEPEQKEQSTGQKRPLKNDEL
UniProt O14964, whole entry, looked up: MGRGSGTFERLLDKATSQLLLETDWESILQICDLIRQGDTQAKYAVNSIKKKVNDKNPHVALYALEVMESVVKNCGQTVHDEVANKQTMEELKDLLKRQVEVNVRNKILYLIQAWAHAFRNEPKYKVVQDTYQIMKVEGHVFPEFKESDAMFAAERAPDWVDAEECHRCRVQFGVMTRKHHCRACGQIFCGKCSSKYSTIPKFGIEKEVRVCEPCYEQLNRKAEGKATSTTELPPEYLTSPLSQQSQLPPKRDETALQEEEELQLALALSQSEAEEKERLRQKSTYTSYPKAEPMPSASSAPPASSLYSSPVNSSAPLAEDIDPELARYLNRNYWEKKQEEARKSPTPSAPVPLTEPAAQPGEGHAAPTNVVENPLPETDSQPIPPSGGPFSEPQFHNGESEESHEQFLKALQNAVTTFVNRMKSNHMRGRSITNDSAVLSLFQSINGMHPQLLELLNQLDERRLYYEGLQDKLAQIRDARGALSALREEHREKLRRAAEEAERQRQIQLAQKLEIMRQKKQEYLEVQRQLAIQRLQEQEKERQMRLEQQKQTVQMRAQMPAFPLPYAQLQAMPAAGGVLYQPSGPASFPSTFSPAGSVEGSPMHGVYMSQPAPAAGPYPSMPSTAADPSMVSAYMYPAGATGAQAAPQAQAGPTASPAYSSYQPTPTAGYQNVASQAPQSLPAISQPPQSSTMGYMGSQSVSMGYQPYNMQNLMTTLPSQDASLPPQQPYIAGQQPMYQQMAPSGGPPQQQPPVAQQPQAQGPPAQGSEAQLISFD
UniProt Q53GQ0: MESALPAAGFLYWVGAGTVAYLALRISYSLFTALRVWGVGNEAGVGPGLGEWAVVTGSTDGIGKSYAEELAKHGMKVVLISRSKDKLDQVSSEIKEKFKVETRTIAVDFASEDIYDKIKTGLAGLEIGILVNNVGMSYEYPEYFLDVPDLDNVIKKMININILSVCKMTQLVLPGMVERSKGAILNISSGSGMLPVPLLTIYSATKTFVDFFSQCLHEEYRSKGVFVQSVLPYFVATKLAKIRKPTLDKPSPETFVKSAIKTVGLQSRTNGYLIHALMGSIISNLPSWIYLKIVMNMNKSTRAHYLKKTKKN
UniProt P82970: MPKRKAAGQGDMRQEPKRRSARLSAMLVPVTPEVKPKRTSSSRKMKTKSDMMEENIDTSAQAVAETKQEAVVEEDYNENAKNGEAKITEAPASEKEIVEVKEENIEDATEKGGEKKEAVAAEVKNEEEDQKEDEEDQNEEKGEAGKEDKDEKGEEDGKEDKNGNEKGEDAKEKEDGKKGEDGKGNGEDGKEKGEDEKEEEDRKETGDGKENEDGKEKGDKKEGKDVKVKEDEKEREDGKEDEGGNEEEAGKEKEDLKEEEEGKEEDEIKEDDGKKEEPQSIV
UniProt Q14773: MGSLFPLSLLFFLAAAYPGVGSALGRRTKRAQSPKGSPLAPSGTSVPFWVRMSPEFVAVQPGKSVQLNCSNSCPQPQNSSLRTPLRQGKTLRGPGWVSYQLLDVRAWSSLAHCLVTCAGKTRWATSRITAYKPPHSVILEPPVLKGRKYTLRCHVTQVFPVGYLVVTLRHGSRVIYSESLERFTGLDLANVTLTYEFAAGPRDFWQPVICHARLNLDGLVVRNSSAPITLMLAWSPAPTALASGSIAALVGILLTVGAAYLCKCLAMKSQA
UniProt P19367: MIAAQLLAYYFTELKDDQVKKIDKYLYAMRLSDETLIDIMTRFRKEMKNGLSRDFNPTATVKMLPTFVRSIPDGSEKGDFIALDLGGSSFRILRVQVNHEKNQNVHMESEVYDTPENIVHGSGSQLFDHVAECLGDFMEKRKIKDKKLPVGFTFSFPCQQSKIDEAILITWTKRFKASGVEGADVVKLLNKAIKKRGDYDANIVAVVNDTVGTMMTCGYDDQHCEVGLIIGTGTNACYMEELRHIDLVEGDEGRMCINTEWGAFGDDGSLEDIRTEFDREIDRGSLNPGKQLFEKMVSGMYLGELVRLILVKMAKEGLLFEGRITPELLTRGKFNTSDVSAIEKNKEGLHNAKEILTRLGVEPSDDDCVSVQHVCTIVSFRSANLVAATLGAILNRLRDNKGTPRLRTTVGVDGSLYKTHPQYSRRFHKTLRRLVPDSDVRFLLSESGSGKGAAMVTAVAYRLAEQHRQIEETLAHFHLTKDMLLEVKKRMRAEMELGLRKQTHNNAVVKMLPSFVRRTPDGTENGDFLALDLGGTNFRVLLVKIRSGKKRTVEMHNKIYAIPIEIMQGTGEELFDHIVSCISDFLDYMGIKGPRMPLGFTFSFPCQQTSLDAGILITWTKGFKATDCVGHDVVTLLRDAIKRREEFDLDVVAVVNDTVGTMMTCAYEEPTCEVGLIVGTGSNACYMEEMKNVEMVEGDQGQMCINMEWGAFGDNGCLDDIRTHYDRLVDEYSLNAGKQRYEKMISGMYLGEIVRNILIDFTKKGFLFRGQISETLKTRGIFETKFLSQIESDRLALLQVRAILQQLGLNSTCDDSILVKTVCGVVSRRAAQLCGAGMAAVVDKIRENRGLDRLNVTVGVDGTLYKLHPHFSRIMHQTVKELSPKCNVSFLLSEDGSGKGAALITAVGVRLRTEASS
UniProt P34931, whole entry, looked up: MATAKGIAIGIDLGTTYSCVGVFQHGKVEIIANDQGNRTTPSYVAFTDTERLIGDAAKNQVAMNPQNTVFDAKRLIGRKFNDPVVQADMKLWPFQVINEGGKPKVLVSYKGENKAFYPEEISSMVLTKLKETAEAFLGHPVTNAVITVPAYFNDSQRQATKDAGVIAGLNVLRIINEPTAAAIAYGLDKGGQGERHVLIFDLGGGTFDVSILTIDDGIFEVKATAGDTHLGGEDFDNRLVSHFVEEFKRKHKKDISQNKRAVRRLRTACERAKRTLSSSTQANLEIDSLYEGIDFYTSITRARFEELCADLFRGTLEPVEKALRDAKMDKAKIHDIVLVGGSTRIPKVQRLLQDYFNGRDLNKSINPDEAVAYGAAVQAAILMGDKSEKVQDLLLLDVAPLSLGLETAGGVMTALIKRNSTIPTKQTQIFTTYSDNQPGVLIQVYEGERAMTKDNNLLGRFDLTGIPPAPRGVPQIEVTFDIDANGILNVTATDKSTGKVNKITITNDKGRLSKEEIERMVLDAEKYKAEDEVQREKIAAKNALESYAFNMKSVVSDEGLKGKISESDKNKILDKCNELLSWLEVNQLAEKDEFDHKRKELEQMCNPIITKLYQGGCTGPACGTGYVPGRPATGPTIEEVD
UniProt Q6NVY1: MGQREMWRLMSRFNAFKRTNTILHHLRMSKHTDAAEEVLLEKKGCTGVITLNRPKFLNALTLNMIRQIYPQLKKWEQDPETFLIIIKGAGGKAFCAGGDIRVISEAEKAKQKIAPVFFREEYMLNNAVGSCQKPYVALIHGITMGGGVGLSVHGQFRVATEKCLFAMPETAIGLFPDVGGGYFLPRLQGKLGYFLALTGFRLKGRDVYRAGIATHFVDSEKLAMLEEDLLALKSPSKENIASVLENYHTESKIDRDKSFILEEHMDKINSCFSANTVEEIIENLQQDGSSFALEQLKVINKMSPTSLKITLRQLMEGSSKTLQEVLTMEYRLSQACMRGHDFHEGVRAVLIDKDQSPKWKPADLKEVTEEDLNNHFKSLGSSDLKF

Compound: COc1cc(Nc2ncc3c(n2)-c2ccc(Cl)cc2C(c2c(F)cccc2OC)=NC3)ccc1C(=O)O [alisertib]
Test: log2 fold change, soluble protein after heating vs DMSO (PISA); higher = thermal stabilisation; K562 cells, 10 uM, 30 min; active = over 0.2 and 3.5 SD of the protein, either way, in both replicates (recomputed)
Method in brief: (§1)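 Soluble protein was defined as the supernatant after 21,000xg for 90 min. It came from K562 cells at 2×10^6 cells/mL given 10 μM compound for 30 min, heated in aliquots for 3 min across 48°C-58°C, pooled, and extracted in PBS with 0.5% NP-40 at 4°C, and was quantified by TMTpro 16plex LC-MS/MS with equalised channel sums. Thermal stability against control samples, from duplicates, is reported as log2 fold change.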

log2 fold change, inactive:
HOXB9 (UniProt P17482) -0.018
HSPA6 (UniProt P17066) -0.077
HSPB1 (UniProt P04792) 0.097
HSPBP1 isoform 3 (UniProt Q9NZL4) -0.082
HSP90AB3P (UniProt Q58FF7) -0.052
HSPB11 (UniProt Q9Y547) -0.019
HNRNPA1 (UniProt P09651) -0.095
HMGN3 (UniProt Q15651) -0.044
HSD17B8 (UniProt Q92506) 0.17
HSPA14 (UniProt Q0VDF9) -0.07
HUS1 (UniProt O60921) 0.015
HIRIP3 (UniProt Q9BW71) -0.031
HSPH1 (UniProt Q92598) -0.031
HSP90AA4P (UniProt Q58FG1) 0.278
HNRNPD isoform 4 (UniProt Q14103) -0.176
HYOU1 (UniProt Q9Y4L1) -0.098
HMGCL (UniProt P35914) -0.168
HGS (UniProt O14964) -0.062
HSD17B12 (UniProt Q53GQ0) 0.003
HMGN5 (UniProt P82970) -0.034
HSPG2 (UniProt P98160) -0.007
HIST2H2BF isoform 2 (UniProt Q5QNW6) 0.081
HIBADH (UniProt P31937) -0.04
HIST2H3A (UniProt Q71DI3) 0.001
ICAM4 (UniProt Q14773) -0.112
HK1 isoform 2 (UniProt P19367) -0.021
HTRA2 (UniProt O43464) -0.153
HSPA1L (UniProt P34931) -0.084
HNRNPD (UniProt Q14103) -0.075
HNRNPUL1 (UniProt Q9BUJ2) 0.01
HIBCH (UniProt Q6NVY1) -0.009

Compound: COc1cc2nc(-c3cc(F)ccc3O)nc(N[C@@H]3CNC[C@H]3C(C)(C)O)c2cc1OC
Test: as above
Method in brief: as §1

log2 fold change, inactive:
HOXB9 (UniProt P17482) -0.005
HSPA6 (UniProt P17066) 0.036
HSPB1 (UniProt P04792) -0.039
HSPBP1 isoform 3 (UniProt Q9NZL4) -0.038
HSP90AB3P (UniProt Q58FF7) 0.035
HSPB11 (UniProt Q9Y547) -0.058
HNRNPA1 (UniProt P09651) 0.02
HMGN3 (UniProt Q15651) -0.115
HSD17B8 (UniProt Q92506) 0.021
HSPA14 (UniProt Q0VDF9) 0.042
HUS1 (UniProt O60921) 0.008
HIRIP3 (UniProt Q9BW71) -0.049
HSPH1 (UniProt Q92598) 0.026
HSP90AA4P (UniProt Q58FG1) 0.249
HNRNPD isoform 4 (UniProt Q14103) -0.151
HYOU1 (UniProt Q9Y4L1) -0.038
HMGCL (UniProt P35914) 0.006
HGS (UniProt O14964) 0.027
HSD17B12 (UniProt Q53GQ0) 0.135
HMGN5 (UniProt P82970) 0.016
HSPG2 (UniProt P98160) -0.03
HIST2H2BF isoform 2 (UniProt Q5QNW6) -0.112
HIBADH (UniProt P31937) 0.001
HIST2H3A (UniProt Q71DI3) -0.106
ICAM4 (UniProt Q14773) -0.044
HK1 isoform 2 (UniProt P19367) 0.026
HTRA2 (UniProt O43464) 0.029
HSPA1L (UniProt P34931) 0.051
HNRNPD (UniProt Q14103) 0.001
HNRNPUL1 (UniProt Q9BUJ2) 0.023
HIBCH (UniProt Q6NVY1) -0.011

Compound: COc1cc2ncnc(Nc3ccc(F)c(Cl)c3)c2cc1OCCCN1CCOCC1 [gefitinib]
Test: as above
Method in brief: as §1

log2 fold change, inactive:
HOXB9 (UniProt P17482) 0.02
HSPA6 (UniProt P17066) -0.004
HSPB1 (UniProt P04792) 0.035
HSPBP1 isoform 3 (UniProt Q9NZL4) -0.001
HSP90AB3P (UniProt Q58FF7) -0.051
HSPB11 (UniProt Q9Y547) 0.023
HNRNPA1 (UniProt P09651) -0.055
HMGN3 (UniProt Q15651) -0.026
HSD17B8 (UniProt Q92506) 0.016
HSPA14 (UniProt Q0VDF9) 0.004
HUS1 (UniProt O60921) 0.013
HIRIP3 (UniProt Q9BW71) 0.003
HSPH1 (UniProt Q92598) 0.011
HSP90AA4P (UniProt Q58FG1) -0.012
HNRNPD isoform 4 (UniProt Q14103) -0.036
HYOU1 (UniProt Q9Y4L1) -0.001
HMGCL (UniProt P35914) -0.013
HGS (UniProt O14964) 0.032
HSD17B12 (UniProt Q53GQ0) 0.103
HMGN5 (UniProt P82970) 0.019
HSPG2 (UniProt P98160) -0.01
HIST2H2BF isoform 2 (UniProt Q5QNW6) 0.053
HIBADH (UniProt P31937) 0.009
HIST2H3A (UniProt Q71DI3) 0.061
ICAM4 (UniProt Q14773) 0.004
HK1 isoform 2 (UniProt P19367) 0.016
HTRA2 (UniProt O43464) 0.019
HSPA1L (UniProt P34931) -0.046
HNRNPD (UniProt Q14103) -0.057
HNRNPUL1 (UniProt Q9BUJ2) -0.02
HIBCH (UniProt Q6NVY1) 0.001
